Measured values reported in the supplement of paper PMC8728848.
The other results are listed elsewhere or left out.

What was measured:
Experiment in all cases: glycan array binding signal (z-score within array); higher = stronger binding
Conditions in all cases: glycan notation: IUPAC condensed, linker removed
[1] = biological target: Man(a1-3)[Man(a1-6)]Man(a1-6)[Man(a1-3)]Man
Outline: (§1)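 The binding signal is a Z-score computed within each array. Data were drawn from 3228 arrays in the Consortium for Functional Glycomics database, restricted to those with a known protein sequence. Scores were averaged over arrays of the same protein sequence at different concentrations or buffers, and over linkers, and negative values can be taken as non-binding.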

[2] = biological target: Man(a1-3)[Man(a1-6)]Man(a1-6)[Man(a1-3)]Man(b1-4)GlcNAc(b1-4)GlcNAc
Outline: as §1

[3] = biological target: Man(a1-3)[Man(a1-6)]Man(b1-4)GlcNAc(b1-4)GlcNAc
Outline: as §1

[4] = biological target: Man(a1-3)[Man(a1-6)]Man(b1-4)GlcNAc(b1-4)[Fuc(a1-6)]GlcNAc
Outline: as §1

[5] = biological target: Man(a1-6)Man
Outline: as §1

[6] = biological target: Man(b1-4)GlcNAc
Outline: as §1

[7] = biological target: MurNAc(b1-4)GlcNAc
Outline: as §1

[8] = biological target: Neu5Ac(a2-3)Gal
Outline: as §1

[9] = biological target: Neu5Ac(a2-3)Gal(b1-3)GalNAc
Outline: as §1

[10] = biological target: Neu5Ac(a2-3)Gal(b1-3)GalNAc(b1-3)Gal(a1-4)Gal(b1-4)Glc
Outline: as §1

[11] = biological target: Neu5Ac(a2-3)Gal(b1-3)GalNAc(b1-4)Gal(b1-4)Glc
Outline: as §1

[12] = biological target: Neu5Ac(a2-3)Gal(b1-3)GalNAc(b1-4)[Neu5Ac(a2-3)]Gal(b1-4)Glc
Outline: as §1

[13] = biological target: Neu5Ac(a2-3)Gal(b1-3)GalNAc(b1-4)[Neu5Ac(a2-8)Neu5Ac(a2-3)]Gal(b1-4)Glc
Outline: as §1

[14] = biological target: Neu5Ac(a2-3)Gal(b1-3)GalNAc6S
Outline: as §1

[15] = biological target: Neu5Ac(a2-3)Gal(b1-3)GlcNAc
Outline: as §1

[16] = biological target: Neu5Ac(a2-3)Gal(b1-3)GlcNAc(b1-2)Man
Outline: as §1

[17] = biological target: Neu5Ac(a2-3)Gal(b1-3)GlcNAc(b1-2)Man(a1-3)[GlcNAc(b1-4)][Neu5Ac(a2-3)Gal(b1-3)GlcNAc(b1-2)Man(a1-6)]Man(b1-4)GlcNAc(b1-4)GlcNAc
Outline: as §1

[18] = biological target: Neu5Ac(a2-3)Gal(b1-3)GlcNAc(b1-2)Man(a1-3)[Neu5Ac(a2-3)Gal(b1-3)GlcNAc(b1-2)Man(a1-6)]Man(b1-4)GlcNAc(b1-4)GlcNAc
Outline: as §1

[19] = biological target: Neu5Ac(a2-3)Gal(b1-3)GlcNAc(b1-2)[Neu5Ac(a2-3)Gal(b1-3)GlcNAc(b1-4)]Man(a1-6)[Neu5Ac(a2-3)Gal(b1-3)GlcNAc(b1-2)Man(a1-3)]Man(b1-4)GlcNAc(b1-4)GlcNAc
Outline: as §1

[20] = biological target: Neu5Ac(a2-3)Gal(b1-3)GlcNAc(b1-3)Gal(b1-3)GlcNAc
Outline: as §1

[21] = biological target: Neu5Ac(a2-3)Gal(b1-3)GlcNAc(b1-3)Gal(b1-4)GlcNAc
Outline: as §1

[22] = biological target: Neu5Ac(a2-3)Gal(b1-3)GlcNAc(b1-3)GalNAc
Outline: as §1

[23] = biological target: Neu5Ac(a2-3)Gal(b1-3)GlcNAc(b1-6)GalNAc
Outline: as §1

[24] = biological target: Neu5Ac(a2-3)Gal(b1-3)GlcNAc6S
Outline: as §1

[25] = biological target: Neu5Ac(a2-3)Gal(b1-3)[Fuc(a1-4)]GlcNAc
Outline: as §1

[26] = biological target: Neu5Ac(a2-3)Gal(b1-3)[Fuc(a1-4)]GlcNAc(b1-3)Gal(b1-3)[Fuc(a1-4)]GlcNAc
Outline: as §1

[27] = biological target: Neu5Ac(a2-3)Gal(b1-3)[Fuc(a1-4)]GlcNAc(b1-3)Gal(b1-4)[Fuc(a1-3)]GlcNAc
Outline: as §1

[28] = biological target: Neu5Ac(a2-3)Gal(b1-3)[GlcNAc(b1-6)]GalNAc
Outline: as §1

[29] = biological target: Neu5Ac(a2-3)Gal(b1-3)[Neu5Ac(a2-6)]GalNAc
Outline: as §1

[30] = biological target: Neu5Ac(a2-3)Gal(b1-3)[Neu5Ac(a2-6)]GlcNAc(b1-3)[Fuc(a1-3)[Gal(b1-4)]GlcNAc(b1-6)]Gal(b1-4)Glc
Outline: as §1

[31] = biological target: Neu5Ac(a2-3)Gal(b1-3)]Neu5Ac(a2-3)Gal(b1-4)]GlcNAc
Outline: as §1

[32] = biological target: Neu5Ac(a2-3)Gal(b1-4)Glc
Outline: as §1

[33] = biological target: Neu5Ac(a2-3)Gal(b1-4)GlcNAc
Outline: as §1

[34] = biological target: Neu5Ac(a2-3)Gal(b1-4)GlcNAc(b1-2)Man
Outline: as §1

[35] = biological target: Neu5Ac(a2-3)Gal(b1-4)GlcNAc(b1-2)Man(a1-3)[GlcNAc(b1-4)][Neu5Ac(a2-3)Gal(b1-4)GlcNAc(b1-2)Man(a1-6)]Man(b1-4)GlcNAc(b1-4)GlcNAc
Outline: as §1

[36] = biological target: Neu5Ac(a2-3)Gal(b1-4)GlcNAc(b1-2)Man(a1-3)[Neu5Ac(a2-3)Gal(b1-4)GlcNAc(b1-2)Man(a1-6)]Man(b1-4)GlcNAc(b1-4)GlcNAc
Outline: as §1

[37] = biological target: Neu5Ac(a2-3)Gal(b1-4)GlcNAc(b1-2)Man(a1-3)[Neu5Ac(a2-3)Gal(b1-4)GlcNAc(b1-2)Man(a1-6)]Man(b1-4)GlcNAc(b1-4)[Fuc(a1-6)]GlcNAc
Outline: as §1

[38] = biological target: Neu5Ac(a2-3)Gal(b1-4)GlcNAc(b1-2)Man(a1-3)[Neu5Ac(a2-6)Gal(b1-4)GlcNAc(b1-2)Man(a1-6)]Man(b1-4)GlcNAc(b1-4)GlcNAc
Outline: as §1

B1: Thrombomodulin Lectin (Mus musculus) (protein)
chain: LSALAKLQPTGSQCVEHECFALFQGPATFLDASQACQRLQGHLMTVRSSVAADVISLLLSQSSMDLGPWIGLQLPQGCDDPVHLGPLRGFQWVTGDNHTSYSRWARPNDQTAPLCGPLCVTVSTATEAAPGEPAWEEKPCETETQGFLCEFYFTASCRVDPIPVREDTKEEEGAGEPPVSPTPGSPTGPPSARPVLDEPRVPITQNPCPPLKECPPCAAPDLEGGPSVFIFPPKIKDVLMISLSPMVTCVVVDVSEDDPDVQISWFVNNVEVHTAQTQTHREDYNSTLRVVSALPIQHQDWMSGKAFACAVNNRALPSPIEKTISKPRGPVRAPQVYVLPPPAEEMTKKEFSLTCMITGFLPAEIAVDWTSNGRTEQNYKNTATVLDSDGSYFMYSKLRVQKSTWERGSLFACSVVHEGLHNHLTTKTISRSLGK
glycan array binding signal (z-score) [1]: -0.093
glycan array binding signal (z-score) [2]: 0.618
glycan array binding signal (z-score) [3]: 0.13
glycan array binding signal (z-score) [4]: -1.31
glycan array binding signal (z-score) [5]: -0.089
glycan array binding signal (z-score) [6]: 0.217
glycan array binding signal (z-score) [7]: -0.179
glycan array binding signal (z-score) [8]: -1.31
glycan array binding signal (z-score) [9]: -0.397
glycan array binding signal (z-score) [10]: -1.2
glycan array binding signal (z-score) [11]: -1.02
glycan array binding signal (z-score) [12]: -0.038
glycan array binding signal (z-score) [13]: -0.054
glycan array binding signal (z-score) [14]: -0.129
glycan array binding signal (z-score) [15]: -0.01
glycan array binding signal (z-score) [16]: 0.18
glycan array binding signal (z-score) [17]: -0.855
glycan array binding signal (z-score) [18]: -0.688
glycan array binding signal (z-score) [19]: 0.153
glycan array binding signal (z-score) [20]: -1.59
glycan array binding signal (z-score) [21]: -1.3
glycan array binding signal (z-score) [22]: -0.1
glycan array binding signal (z-score) [23]: 0.213
glycan array binding signal (z-score) [24]: -0.318
glycan array binding signal (z-score) [25]: 0.523
glycan array binding signal (z-score) [26]: -0.246
glycan array binding signal (z-score) [27]: 0.336
glycan array binding signal (z-score) [28]: 1.25
glycan array binding signal (z-score) [29]: 1.16
glycan array binding signal (z-score) [30]: -0.645
glycan array binding signal (z-score) [31]: -0.991
glycan array binding signal (z-score) [32]: 0.498
glycan array binding signal (z-score) [33]: 0.503
glycan array binding signal (z-score) [34]: -1.13
glycan array binding signal (z-score) [35]: 0.99
glycan array binding signal (z-score) [36]: 1.59
glycan array binding signal (z-score) [37]: 0.699
glycan array binding signal (z-score) [38]: -0.525
